Experimental findings from the supplement of paper PMC10398353 are described below.

Each structure is given as a SMILES string. Several values for one entry are separate records, joined by “and”; a condition that tells them apart may be missing. Equal values may be shown once. Where a name gives a salt, the structure may show the parent alone. ± gives the standard deviation of the averaged measurements. This is one part of the list. Single values of this set are uncertain.

This assay relates to Salmonella enterica serovar Typhimurium ST313 D23580. The assay can be described thus: normalized bacterial growth (OD600 20 h minus 0 h, interquartile-mean normalized) (fraction of plate interquartile mean); higher = more bacterial growth (less inhibition). The settings on record: LPM (pH 5.8, low phosphate, low Mg2+), concentration: 10 µM, temperature: 37 °C.
Turning to `C=C[C@H]1CN2CC[C@H]1C[C@H]2[C@H](O)c1ccnc2ccccc12`, the normalized bacterial growth was 0.96 and 1.14.

As for `CC1=NCCc2c1[nH]c1cc(O)ccc21`, the normalized bacterial growth was 0.816 and 1.1.

In turn, `CC1=NCCc2c1[nH]c1cc(O)ccc21` [Harmalol hydrochloride dihydrate] gave a normalized bacterial growth of 0.977.

The compound `CNCCc1ccc(O)c(O)c1` [N-Methyldopamine hydrochloride] came in with a normalized bacterial growth of 1.16.

Regarding `Clc1cnc(Oc2ccc(Oc3ncc(Cl)cc3Cl)cc2)c(Cl)c1`, the normalized bacterial growth worked out at 0.963.

For the compound `COC[C@H]1OC(=O)c2coc3c2[C@@]1(C)C1=C(C3=O)[C@@H]2CCC(=O)[C@@]2(C)C[C@H]1OC(C)=O`, the normalized bacterial growth stood at 0.739.

For `CC1(C)C2(Cl)C(Cl)C(Cl)C(Cl)(C(Cl)Cl)C1(Cl)C2Cl` (stereo not given), the normalized bacterial growth came out at 1.

On to `N[C@@H](Cn1oc(=O)[nH]c1=O)C(=O)O`, for which the normalized bacterial growth was 0.787.

With `CC(Oc1ccc(Cl)cc1Cl)C(=O)O` (stereo not given), the normalized bacterial growth is 0.832.

For `NC(N)=NOCC[C@H](N)C(=O)O` ["Canavanine sulfate monohydrate (L,+)"], the normalized bacterial growth came to 0.968.

`NC(N)=NOCC[C@H](N)C(=O)O` [L-Canavanine sulfate] yielded a normalized bacterial growth of 1.15.

Compound `NC(N)=NOCC[C@H](N)C(=O)O` [L-Canavanine] gave a normalized bacterial growth of 1.01.

In turn, `CN1[C@@H]2CCC[C@H]1CC(=O)C2` [Pseudopelletierine hydrochloride] displayed a normalized bacterial growth of 1.07.

In turn, `CN1[C@@H]2CCC[C@H]1CC(=O)C2` gave a normalized bacterial growth of 0.967.

For the compound `S=C(NC1CCCCC1)N1CCC(c2cnc[nH]2)CC1` [Thioperamide maleate], the normalized bacterial growth turned out to be 1.027 ± 0.0069.

Take `COC(=O)COc1ccc(Cl)cc1Cl`: the normalized bacterial growth was 1.08.

`C[C@]12CC[C@H]3[C@@H](CC[C@]4(O)C[C@@H](O)CC[C@]34C=O)[C@@]1(O)CC[C@@H]2C1=CC(=O)OC1` [Strophanthidin] yielded a normalized bacterial growth of 0.824.

Consider `C[C@]12CC[C@H]3[C@@H](CC[C@]4(O)C[C@@H](O)CC[C@]34C=O)[C@@]1(O)CC[C@@H]2C1=CC(=O)OC1`, for which the normalized bacterial growth came out at 0.721.

`CCN(CC)C(=O)NC1CC2c3cccc4[nH]cc(c34)CC2N(C)C1` (stereo not drawn) [R(+)-Terguride] returned a normalized bacterial growth of 0.65.

As for `N#C/C(=C\c1cccc(O)c1)C(=O)O` [alpha-CYANO-3-HYDROXYCINNAMIC ACID], the normalized bacterial growth stood at 1.1.

Take `O=C([O-])c1ccccc1-c1c2cc(Br)c(=O)cc-2oc2[c]([Hg+])c([O-])c(Br)cc12.[Na+].[Na+].[OH-]`: the normalized bacterial growth was 0.0635.

In the case of `O=C([O-])c1ccccc1-c1c2cc(Br)c(=O)cc-2oc2[c]([Hg+])c([O-])c(Br)cc12.[Na+].[Na+].[OH-]` [Merbromin], the normalized bacterial growth amounted to 0.0162.

In turn, `CC(=O)O[C@@H]1C[C@@]2(C)[C@H](c3ccoc3)C[C@H]3O[C@]32[C@]2(C)C(=O)C(O)=C3C(C)(C)C(=O)C=C[C@]3(C)[C@@H]12` displayed a normalized bacterial growth of 1.12.

Regarding `O=c1[nH]c2ccccc2n1CCCN1CCC(n2c(=O)[nH]c3cc(Cl)ccc32)CC1` [Domperidone], the normalized bacterial growth is 0.956.

As to `COP(=S)(OC)SCn1nnc2ccccc2c1=O`, the normalized bacterial growth was 0.98.

As for `C=C1[C@H]2C[C@@]3([C@@H]1O)[C@@H](C[C@@H]2O)[C@]12[C@@H]4C[C@H]3[C@H]1N(CC)C[C@]4(C)CC[C@@H]2O` [Napelline], the normalized bacterial growth was found to be 0.871.

`C#C[C@]1(O)CC[C@H]2[C@@H]3CCC4=CC(=O)CC[C@]4(C)[C@H]3CC[C@@]21C` came in with a normalized bacterial growth of 1.11.

`C#C[C@]1(O)CC[C@H]2[C@@H]3CCC4=CC(=O)CC[C@]4(C)[C@H]3CC[C@@]21C` [Ethisterone] showed a normalized bacterial growth of 0.867.

The compound `CC(C)[N+](C)(CCC(C(N)=O)(c1ccccc1)c1ccccc1)C(C)C` returned a normalized bacterial growth of 1.3.

In turn, `CC(C)=CCCC1=CC(=O)c2c(O)ccc(O)c2C1=O` had a normalized bacterial growth of 1.31.

For `C/C=C1/C[N+]2(C)CCC34C(=C(C=O)[C@H]1C[C@@H]32)Nc1ccccc14` (stereo not given in full) [Fluorocurarine chloride], the normalized bacterial growth was 0.776.

Turning to `CC(C)CC(N(C)C)C1(c2ccc(Cl)cc2)CCC1` (stereo not given), the normalized bacterial growth was 0.475.

Compound `C=CCN1CC[C@]23c4c5ccc(O)c4O[C@H]2/C(=N/NC(=O)c2ccccc2)CC[C@@]3(O)[C@H]1C5` [Naloxone benzoylhydrazone] displayed a normalized bacterial growth of 1.28.

As for `C[C@H]1CCC[C@@H](O)CCCCCc2cc(O)cc(O)c2C(=O)O1`, the normalized bacterial growth came to 1.05.

As to `Nc1ncn[nH]1`, the normalized bacterial growth was found to be 1.17.

Turning to `COc1ccc(CN2CCNCC2)c(OC)c1OC` [Trimetazidine dihydrochloride], the normalized bacterial growth was determined as 0.82.

`CCCN(CCC)CCc1c[nH]c2ccc(C(N)=O)cc12` ["N,N-Dipropyl-5-carboxamidotryptamine maleate"] registered a normalized bacterial growth of 1.02.

Regarding `C[C@H]1CCCC(=O)CCC/C=C/c2cc(O)cc(O)c2C(=O)O1`, the normalized bacterial growth stood at 1.09.

`CC(C)=CCCC1(C)C=Cc2c(O)c3c(c(CC=C(C)C)c2O1)OC12C(CC4CC1C(C)(C)OC2(C/C=C(/C)C(=O)O)C4O)C3=O` (stereo not given) had a normalized bacterial growth of 0.986.

In turn, `CC[C@H]1CN2CC[C@H]1C[C@@H]2[C@@H](O)c1ccnc2ccc(OC)cc12` registered a normalized bacterial growth of 1.02.

As for `c1ccc2c(N3CCNCC3)cccc2c1` [1-(1-Naphthyl)piperazine hydrochloride], the normalized bacterial growth is 1.07.

`CC(C)[C@@H]1NC(=O)[C@H](C)OC(=O)[C@@H](C(C)C)NC(=O)[C@@H](C(C)C)OC(=O)[C@H](C(C)C)NC(=O)[C@H](C)OC(=O)[C@@H](C(C)C)NC(=O)[C@@H](C(C)C)OC(=O)[C@H](C(C)C)NC(=O)[C@H](C)OC(=O)[C@@H](C(C)C)NC(=O)[C@@H](C(C)C)OC1=O`: the normalized bacterial growth came out at 0.935.

`C=C[C@H]1CN2CC[C@H]1C[C@H]2[C@H](OC(=O)OCC)c1ccnc2ccc(OC)cc12` yielded a normalized bacterial growth of 1.12.

The compound `O=C(N[C@H]1CN2CCC1CC2)c1ccc(Cl)cc1` yielded a normalized bacterial growth of 1.13.

`O=[N+]([O-])c1ccc2nc(N3CCNCC3)ccc2c1` ["Quipazine, 6-nitro-, maleate"] came in with a normalized bacterial growth of 0.881.

Compound `C[C@]12CC[C@H]3[C@@H](CCC4=CC(=O)CC[C@@H]43)[C@@H]1CC[C@@H]2O` [Nandrolone] showed a normalized bacterial growth of 1.23.

In turn, `OC[C@@H]1[C@@H](O)[C@H](O)[C@H]2[C@@H](O)CCN21` came in with a normalized bacterial growth of 1.05.

As to `Cc1cc(O)ccc1Cl`, the normalized bacterial growth worked out at 1.05.

The compound `CC12CCC3C(CCC4=C(O)C(=O)CCC43C)C1CCC2=O` (stereo not given) ["4-Androsten-4-ol-3,17-dione"] came in with a normalized bacterial growth of 0.702.

Take `CCCN(CCC)c1c([N+](=O)[O-])cc(C(F)(F)F)cc1[N+](=O)[O-]`: the normalized bacterial growth turned out to be 1.12.

Regarding `N[C@@H](Cn1ccc(=O)[nH]c1=O)C(=O)O` [S(-)-Willardiine], the normalized bacterial growth stood at 1.37.

Take `CC(=O)O[C@H]1C[C@@H](OC(C)=O)C(C)(C)C2C[C@@H](OC(C)=O)[C@]3(C)C(CC[C@@]4(C)[C@H](c5ccoc5)C(=O)[C@H]5O[C@]543)[C@]21C` (stereo not given in full): the normalized bacterial growth came out at 0.774.

`CCCC(=O)O[C@@H]1[C@@H](C)[C@@]2(O)[C@@H](C=C(CO)C[C@]3(O)C(=O)C(C)=C[C@@H]23)[C@@H]2C(C)(C)[C@]12OC(=O)CCC`: the normalized bacterial growth came to 0.722.

`C=C(C)[C@H]1CN[C@H](C(=O)O)[C@H]1CC(=O)O` yielded a normalized bacterial growth of 1.16 ± 0.18.

`C[C@@H]1CC[C@@]2(OC1)O[C@H]1[C@@H](O)[C@H]3[C@@H]4CC[C@H]5C[C@@H](O[C@@H]6O[C@H](CO)[C@H](O[C@@H]7O[C@H](CO)[C@@H](O)[C@H](O[C@@H]8OC[C@@H](O)[C@H](O)[C@H]8O)[C@H]7O[C@@H]7O[C@H](CO)[C@H](O)[C@H](O[C@@H]8O[C@H](CO)[C@@H](O)[C@H](O)[C@H]8O)[C@H]7O)[C@H](O)[C@H]6O)[C@H](O)C[C@]5(C)[C@H]4CC[C@]3(C)[C@H]1[C@@H]2C` showed a normalized bacterial growth of 1.18.

`CN1[C@@H]2CC[C@H]1C[C@@H](OC(=O)[C@H](CO)c1ccccc1)C2`: the normalized bacterial growth was 1.1 ± 0.042.

In turn, `CN1[C@@H]2CC[C@H]1C[C@@H](OC(=O)[C@H](CO)c1ccccc1)C2` [Hyoscyamine (L)] gave a normalized bacterial growth of 1.01.

For the compound `CN1[C@@H]2CC[C@H]1C[C@@H](OC(=O)[C@H](CO)c1ccccc1)C2` [L-Hyoscyamine], the normalized bacterial growth came to 1.04.

Turning to `C[C@H](N)CN1CCc2ccc(Br)cc21` [VER-3323 hemifumarate salt], the normalized bacterial growth was 0.764.

`C[C@]12CC[C@H](O)C[C@H]1CC[C@@H]1[C@@H]2CC[C@]2(C)[C@@H](c3ccc(=O)oc3)CC[C@]12O` yielded a normalized bacterial growth of 0.918.

The compound `ClC1=C(Cl)C2(Cl)C3C(Cl)C(Cl)CC3C1(Cl)C2(Cl)Cl` (stereo not given) returned a normalized bacterial growth of 1.05.

Consider `O=C1CN=C(c2ccccc2Cl)c2cc([N+](=O)[O-])ccc2N1`, for which the normalized bacterial growth is 1.4.

For `C[C@H]1O[C@H](O[C@H]2[C@H](O)[C@@H](O)[C@@H](O)[C@H](O)[C@@H]2O)[C@@H](N)C[C@@H]1NC(=N)C(=O)O`, the normalized bacterial growth worked out at 1.03.

Take `C[C@H]([C@H](O)CCC(C)(C)O)[C@H]1CC[C@@]2(O)C3=CC(=O)[C@@H]4C[C@@H](O)[C@@H](O)C[C@]4(C)[C@H]3CC[C@]12C`: the normalized bacterial growth stood at 1.19.

With `CN[C@@H]1C[C@@H](c2ccc(Cl)c(Cl)c2)c2ccccc21` [Indatraline hydrochloride], the normalized bacterial growth was 0.821.

With `O=[N+]([O-])c1cc(O)c(O)c([N+](=O)[O-])c1` ["3,5-Dinitrocatechol"], the normalized bacterial growth was 1.12.

The compound `O=[N+]([O-])O[C@@H]1CO[C@H]2[C@@H]1OC[C@@H]2O` yielded a normalized bacterial growth of 0.991.

On to `C=CCN1C[C@H](C)N([C@H](c2ccc(C(=O)N(CC)CC)cc2)c2cccc(OC)c2)C[C@H]1C`, for which the normalized bacterial growth stood at 0.779.

`CC(C)=CCOc1c2occc2cc2ccc(=O)oc12` had a normalized bacterial growth of 1.34.

Compound `CCN1C[C@]2(C)CC[C@H](OC)[C@@]34C1[C@]1(OCO[C@@]15C[C@H](OC)[C@H]1C[C@]3(O)[C@@H]5[C@H]1OC)[C@@H](OC(C)=O)[C@H]24` [Deltaline] gave a normalized bacterial growth of 0.787.

In turn, `CCN1C[C@]2(C)CC[C@H](OC)[C@@]34C1[C@]1(OCO[C@@]15C[C@H](OC)[C@H]1C[C@]3(O)[C@@H]5[C@H]1OC)[C@@H](OC(C)=O)[C@H]24` registered a normalized bacterial growth of 1.26.

As for `NC(=O)c1ccc(N)nc1`, the normalized bacterial growth came out at 0.767.

In turn, `N[C@@H](Cc1ccc(N(CCCl)CCCl)cc1)C(=O)O` registered a normalized bacterial growth of 0.757.

For the compound `N[C@@H](Cc1ccc(N(CCCl)CCCl)cc1)C(=O)O` [Melphalan], the normalized bacterial growth was found to be 0.886.

In turn, `OC1CCCCC1N1CCC(c2ccccc2)CC1` (stereo not given) [()-Vesamicol hydrochloride] came in with a normalized bacterial growth of 1.07.
